Assay [1] addresses T1, GST-AtYchF1 (Arabidopsis thaliana) (UniProt Q9SA73).
T1 sequence: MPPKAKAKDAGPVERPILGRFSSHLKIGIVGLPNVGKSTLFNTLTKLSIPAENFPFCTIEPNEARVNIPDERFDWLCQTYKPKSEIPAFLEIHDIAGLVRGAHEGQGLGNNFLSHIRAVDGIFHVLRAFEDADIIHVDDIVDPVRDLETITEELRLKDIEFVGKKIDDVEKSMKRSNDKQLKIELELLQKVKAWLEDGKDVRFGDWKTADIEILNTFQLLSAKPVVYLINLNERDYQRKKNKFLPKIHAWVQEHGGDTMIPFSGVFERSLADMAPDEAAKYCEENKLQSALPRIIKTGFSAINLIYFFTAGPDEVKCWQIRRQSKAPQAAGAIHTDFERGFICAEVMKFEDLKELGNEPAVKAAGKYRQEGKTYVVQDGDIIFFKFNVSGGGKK
The assay can be described thus: pull-down; E. coli cell lysate with about 100 ug MBP-OsFKBP12 (or MBP tag only) incubated 1 h with E. coli cell lysate with about 100 ug GST-AtYchF1; MagneGST Glutathione Particles; ten washes with 20 mM Tris pH 7.5, 150 mM NaCl; western blot with anti-MBP and anti-GST antibodies; the results call both proteins purified. (In western blotting, separated proteins are transferred to a membrane and probed.)

Sequences of proteins named here, by UniProt entry; tags and fusion partners are left off. A change or cut given only in a name is not applied to a line headed by its entry.
UniProt Q6K8D4: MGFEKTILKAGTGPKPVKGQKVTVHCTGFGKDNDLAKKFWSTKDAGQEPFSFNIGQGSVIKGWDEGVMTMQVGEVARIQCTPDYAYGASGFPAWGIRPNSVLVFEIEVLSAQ

Assay [2] has as its target GST-OsFKBP12 (Oryza sativa) (UniProt Q6K8D4). The assay can be described thus: pull-down; E. coli cell lysate with about 100 ug GST-FKBP12 (or GST tag only) incubated 1 h with 500 ug soluble protein from rice leaves (Aichi Asahi); MagneGST Glutathione Particles; five washes with 20 mM Tris pH 7.5, 150 mM NaCl; western blot with anti-OsYchF1 and anti-GST antibodies.
Assay [3] has as its target nYFP-OsFKBP12 (Oryza sativa). In words: split reporter; BiFC with nYFP and cCFP fusions in protoplasts of tobacco BY-2 suspension cells, PEG-mediated transformation, 16 h, confocal microscopy.

No constants are given. Whether binding was seen depends on the method and setting. Binding seen in cells or lysates may run through a third protein. Binding can be weak; no strength is given. For part of these data: Tags and fused reporters may be left off the sequences shown.

For the molecule MBP-OsFKBP12 (from UniProt Q6K8D4), the binding entry in assay [1] was “binds”.

B1: native OsYchF1 (protein, UniProt Q6Z1J6 1-394)
chain: MPPKASKKDAAPAERPILGRFSSHLKIGIVGLPNVGKSTFFNIVTKLSIPAENFPFCTIDPNEARVYVPDERFDWLCQLYKPKSEVSAYLEINDIAGLVRGAHAGEGLGNAFLSHIRAVDGIFHVLRAFEDKEVTHIDDSVDPVRDLETIGEELRLKDIEFVQNKIDDLEKSMKRSNDKQLKLEHELCEKVKAHLEDGKDVRFGDWKSADIEILNTFQLLTAKPVVYLVNMSEKDYQRKKNKFLPKIHAWVQEHGGETIIPFSCAFERLLADMPPDEAAKYCAENQIASVIPKIIKTGFAAIHLIYFFTAGPDEVKCWQIRRQTKAPQAAGTIHTDFERGFICAEVMKFDDLKELGSESAVKAAGKYRQEGKTYVVQDGDIIFFKFNVSGGGKK
Turning to B1, in assay [2], the binding result is listed as “binds”.

B2: cCFP-OsYchF1 (protein, UniProt Q6Z1J6 1-394)
chain: B1 chain
On to B2, for which the binding entry in assay [3] is “binds”.

The values are drawn from article PMC7699956.
